Reference: paper PMC9090556
Results are given in words; binding and its absence hold for the method and conditions named. A result given as binding can be weak or reduced; the word gives no strength. Sequences can lack the tags named with a protein.

B1: OsJAZ1 (yeast two-hybrid fusion) (protein, UniProt Q7XPM8 1-216)
chain: MDLLEKKNIKKGGEVEEEVARKGEERKEEEVVVEEKSHQQQQQQGEEELVGLSLAGGRPKVFPMSSPPPNPSQLTIFYGGSVCVYDSVPPEKAQAIMLIAAAAAAAASATKSNAAIAVKPPVMPAANATQAAVSPVLTRSLSLQSTSVATGQPQVAADPSSICKLQADLPIARRHSLQRFLEKRRDRLVSKAPYPTKSSEGMEASGMEVTAEGKAQ
B2: OsJAZ4 (yeast two-hybrid fusion) (protein, UniProt Q6ES51 1-416)
chain: MERDFLGAIGKDEEQRRHAEERKESDYFGAGGGAAAAAMDWSFASRAALMSFRSSSSAAAAAAREETRELAFPHFSALDGAKMQQASHVLARQKSFGAESHGIPQYAAAAAVHGAHRGQPPHVLNGARVIPASSPFNPNNPMFRVQSSPNLPNAVGAGGGAFKQPPFAMGNAVAGSTVGVYGTRDMPKAKAAQLTIFYAGSVNVFNNVSPEKAQELMFLASRGSLPSAPTTVARMPEAHVFPPAKVTVPEVSPTKPMMLQKPQLVSSPVPAISKPISVVSQATSLPRSASSSNVDSNVTKSSGPLVVPPTSLPPPAQPETLATTTAAAIMPRAVPQARKASLARFLEKRKERVTTVAPYPLAKSPLESSDTMGSANDNKSSCTDIALSSNRDESLSLGQPRTISFCEESPSTKLQI
B3: OsJAZ6 (yeast two-hybrid fusion) (protein, UniProt Q84R94 1-228)
chain: MASAKSGERGSSSFAMACSLLSRYVRQNGAAAGELGLGIRGEADANKGKETMELFPQNSGFGSEAAAVKETPDAREQEKRQLTIFYGGKVLVFDDFPAEKAKDLMQMASKSSSTAQNCVLLPSSATATVADNTKVSAVPAPASALPVAQANAPKPVRPNAADLPQARKASLHRFLEKRKDRLQAKAPYQGSPSDASPVKKELQESQPWLGLGPQVAAPDLSLRQESSQ
B4: OsJAZ8 (yeast two-hybrid fusion) (protein, UniProt Q69P94 1-232)
chain: MAGRATATATAAGKDRSSFAVTCSLLSQFLKEKKGGGGGLQGLGLGLRPAPAAPPAAGAGGAFRPPPTTMNLLSGLDAPAVEVEPNTAETAADELPLIKAPADQQSDESASEAAGEKAQQLTIFYGGKVVVFENFPSTKVKDLLQIVSTGDGVDKNTGTAATQSLPRPAHNSLPDLPIARRNSLHRFLEKRKGRMNANAPYQANCTAAPSKQANGDKSWLGFGQEMTIKQEI
B5: OsJAZ1-6XHIS (protein, UniProt Q7XPM8 1-216)
chain: B1 chain

Key:
[1] = biological target: OsJAZ11 (pBD-OsJAZ11, yeast two-hybrid fusion) (rice (Oryza sativa)); assay: two-hybrid; Matchmaker Gold system, Y2H Gold yeast strain; BD (pGBKT7) bait and AD (pGADT7) prey co-transformed; growth on SD/-Leu/-Trp/-His, SD/-Leu/-Trp/-His/-Ade and SD/-Leu/-Trp/-His/-Ade/X-Gal/Aureobasidin A
[2] = biological target: OsJAZ11-GST (rice (Oryza sativa)); assay: pull-down; in vitro GST pull-down; OsJAZ11-GST as bait, 6XHis-tagged partner as prey; recombinant proteins from E. coli; both purified

Binder	binding [1]	binding [2]
B1	binds	
B2	binds	
B3	binds	
B4	binds	
B5		binds
